# Results taken from PubChem BioAssay AID651640 (Broad Institute, 2012).
# Screen size: about 350,000 compounds; about 6,000 (1.7%) were called active. Inconclusive results, whose numbers are uncertain, are shown with a selection of clear calls. No stated cut-off is given here; in the data, active means CPE inhibition above about 20% (passing the limit was not always enough); inconclusive means no clear call, values can overlap the other calls; tested in BHK-21 cells.
# Assay: protection of cells from dengue 2 killing – plate reader, single concentration, primary screen (AID 651640);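 further: 0% = median of neutral control wells and 100% = median of positive control wells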
# Conditions: DENV2-infected cells, cytopathic effect rescue, at 9.99 µM, hits give high values
row,Structure (SMILES),CPE inhibition
1,COc1ccc(S(=O)(=O)N(C)C[C@H]2OCCCC[C@H](C)Oc3ccc(NC(=O)NC(C)C)cc3C(=O)N([C@H](C)CO)C[C@@H]2C)cc1,inconclusive: 24.3%
2,N#Cc1ccc(CN2CCN(C(=O)CC(NC(=O)c3ccccc3)c3ccccc3)CC2)cc1 (configuration not stated),active: 62.5%
3,COc1ccc2c3c(n(C)c2c1)[C@H](CO)N(CC1CCCCC1)CC31CCN(C(=O)CN(C)C)CC1,inactive: 12.2%
4,COc1ccc(NC(=O)N(C)C[C@H]2Oc3ccc(NC(=O)Cn4cnnn4)cc3CC(=O)N([C@@H](C)CO)C[C@@H]2C)cc1,active: 56.3%
5,COc1ccc(S(=O)(=O)N2CCCCN3[C@H](CO)[C@H](c4ccc(C#CCC(C)C)cc4)[C@@H]3C2)cc1,inactive: -6.45%
6,COc1ccccc1C(=O)Nc1ccc(OCC(=O)N2CC(C)CC(C)C2)cc1 (configuration not stated),inactive: 3.05%
7,COc1ccc(N(CC(=O)Nc2ccc(C(N)=O)cc2)S(=O)(=O)c2ccc(C)c([N+](=O)[O-])c2)cc1,inconclusive: 24%
8,CN(C)c1ccc(S(=O)(=O)N2CCCCC2)cc1NC(=O)C1=COCCO1,inconclusive: 20.7%
9,N#Cc1c(N)n(-c2ccc(C(=O)O)cc2)c2nc3ccccc3nc12,inconclusive: 43.3%
10,CO[C@H]1CN(C)C(=O)c2ccc(NC(=O)c3ccccc3)cc2OC[C@@H](C)N(C(=O)CN(C)C)C[C@@H]1C,active: 28.4%
11,COc1ccc(CCNC(=O)c2ccc3c(c2)S(=O)(=O)N=C2CCCCCN23)cc1OC,inconclusive: 22.3%
12,NC(=O)CC(NC(=O)Cc1cccc2ccccc12)c1ccc(N2CCC(N3CCCCC3)CC2)c([N+](=O)[O-])c1 (configuration not stated),active: 23.4%
13,COc1ccc(CC(=O)OCC(=O)NC(=O)Nc2ccccc2F)cc1,inconclusive: 23.5%
14,O=C(C[C@H]1CC[C@@H]2[C@H](COC[C@H](O)CN2Cc2ccc(F)cc2)O1)NCc1ccncn1,active: 26.7%
15,C/C=C(/C)C(=O)O[C@@H]1c2c(ccc3ccc(=O)oc23)O[C@@H]1C(C)(C)OC(=O)/C(C)=C\C,inconclusive: 40.5%
16,Cc1cccc(C)c1OCC(=O)Nc1ccc2c(c1)OCCO2,inconclusive: 27.2%
17,COc1ccc(CN(C)C[C@@H]2Oc3c(NS(=O)(=O)c4cn(C)cn4)cccc3C(=O)N([C@H](C)CO)C[C@H]2C)cc1,inconclusive: 45.2%
18,O=C(CCN1CCCO1)N1CCCC(Nc2cccc(F)c2)C1 (configuration not stated),inconclusive: 22.3%
19,CN(Cc1ccccc1)S(=O)(=O)c1ccc(NC(=O)C2CCCCC2C(=O)O)cc1 (configuration not stated),inconclusive: 28.5%
20,O=C1NC[C@@H](CCCCN2C[C@H](Cc3ccccc3)N(CCc3ccc(O)cc3)C(=O)C2=O)N(CC2CCCCC2)C1=O,inconclusive: 26.8%
21,O=C(Nc1ccc(S(=O)(=O)N2CCCC2)cc1)C1CCCN1C(=O)c1cccs1 (configuration not stated),inconclusive: 30.1%
22,COC(=O)[C@H]1[C@H](CO)[C@H]2Cn3c(ccc(C4=CCCC4)c3=O)[C@H]2N1C(=O)C1CCC1,inactive: -0.079%
23,CC1CCCN(Cc2nc3c(c(=O)n(C)c(=O)n3C)n2Cc2c(F)cccc2Cl)C1 (configuration not stated),inconclusive: 34.5%
24,COc1ccccc1-c1ccc([C@@H]2C[C@H]3[C@H](CON3C)CN2C(=O)c2ccc(-c3ccccc3)cc2)cc1,active: 38.2%

# Reprinted from the listing, three compounds:
row,Structure (SMILES),CPE inhibition
14,O=C(C[C@H]1CC[C@@H]2[C@H](COC[C@H](O)CN2Cc2ccc(F)cc2)O1)NCc1ccncn1,active: 26.7%
15,C/C=C(/C)C(=O)O[C@@H]1c2c(ccc3ccc(=O)oc23)O[C@@H]1C(C)(C)OC(=O)/C(C)=C\C,inconclusive: 40.5%
16,Cc1cccc(C)c1OCC(=O)Nc1ccc2c(c1)OCCO2,inconclusive: 27.2%

# Next part:

row,Structure (SMILES),CPE inhibition
1,CCOC(=O)c1cc(-c2ccccc2)n[nH]1,inconclusive: 23.8%
2,CCCC(=O)Nc1ccc2c(c1)C(=O)N(C)[C@H]1CC[C@@H](CC(=O)Nc3cn(C)nc3C)O[C@H]1CO2,inactive: 0.425%
3,O=C(C[C@@H]1CC[C@@H]2NC[C@H](O)COC[C@H]2O1)NCCc1ccccc1,inactive: 9.83%
4,CN(C)S(=O)(=O)c1ccc(NC(=O)CSc2nnc(-c3ccco3)o2)cc1,inconclusive: 54.5%
5,CN1C(=O)c2cc(NC(=O)c3ccc(C(F)(F)F)cc3)ccc2OC[C@@H]2O[C@@H](CC(=O)O)CC[C@H]21,inconclusive: 29.2%
6,Cc1ccc(S(=O)(=O)Nc2ccc3c(c2)C(=O)N([C@@H](C)CO)C[C@@H](C)[C@H](CN(C)C(=O)Nc2ccc(C(F)(F)F)cc2)OCCCC[C@@H](C)O3)cc1,inconclusive: 28.8%
7,O=C(Nc1nc(-c2ccc([N+](=O)[O-])cc2)cs1)C1=COCCO1,active: 41.8%
8,Cc1cc(Br)cn2c(Cc3cccc(Cl)c3)c(-c3ccco3)nc12,inconclusive: 24.8%
9,COc1cc(C2CC(=O)Oc3c(C(CCN4CCCC(C)C4)c4ccc(N(C)C)cc4)c(OC)cc(OC)c32)cc(OC)c1OC (configuration not stated),active: 51.5%
10,Cc1cccc(C)c1NC(=O)Nc1ccc(S(N)(=O)=O)cc1,inconclusive: 24.6%
11,O=C(COc1ccc2ccccc2c1)N1CCNCC1,inconclusive: 50.2%
12,O=C(N[C@@H]1CC[C@@H](CCn2cc(C3(O)CCCC3)nn2)O[C@@H]1CO)C1CCCCC1,inactive: 9.23%
13,CC(C)NC(=O)Nc1cccc2c1O[C@@H](CN(C)C(=O)Nc1ccc(C(F)(F)F)cc1)[C@H](C)CN([C@H](C)CO)C2=O,inconclusive: 32%
14,COc1ccc(S(=O)(=O)N(C)C[C@H]2Oc3c(NS(=O)(=O)c4ccc(Cl)cc4)cccc3C(=O)N([C@H](C)CO)C[C@@H]2C)cc1,inconclusive: 23.5%
15,Cc1ccccc1S(=O)(=O)N1CC[C@@H]2[C@H]1c1cc(-c3cccc(F)c3)ccc1N(C)[C@H]2CO,active: 21.7%
16,COc1ccccc1NC(=O)CSc1nccn1Cc1ccc(F)cc1,inconclusive: 22.9%
17,COc1ccc(C)cc1NC(=O)CCNS(=O)(=O)c1ccc2c(c1)CC(C)N2C(C)=O (configuration not stated),inconclusive: 34.2%
18,Cc1nnc(SCC(=O)NC2CCCc3ccccc32)n1-c1ccccc1 (configuration not stated),active: 83.4%
19,CCCOc1ccc(C(=O)CCCC(=O)c2ccc(OCCC)cc2)cc1,inactive: 1.12%
20,COc1ccc(-c2[nH]c(-c3ccc(C)cc3)nc2SCC(=O)Nc2nccs2)cc1,inconclusive: 24.6%
21,COc1ccccc1N(C)S(=O)(=O)c1ccc(C(=O)Nc2ccc(C(N)=O)cc2)cc1,inconclusive: 77%
22,C[C@H](CO)N1C[C@H](C)[C@H](CN(C)CC2CC2)Oc2c(NC(=O)c3ccncc3)cccc2C1=O,inconclusive: 20.3%
23,Cc1ccc(C(=O)CN(CCC(=O)O)C(=O)c2ccncc2)cc1,inconclusive: 35.2%
24,OC[C@@H]1[C@@H](c2ccc(-c3ccccc3F)cc2)[C@@H]2CN(Cc3ccncc3)CCCCN12,active: 22.3%

row,Structure (SMILES),CPE inhibition
1,COCC#Cc1ccc([C@H]2[C@H]3CN(S(=O)(=O)c4ccc(OC)cc4)CCCCN3[C@H]2CO)cc1,active: 44.7%
2,C=C(c1ccccc1O)n1ccnc1,inconclusive: 20.3%
3,COC(=O)C[C@@H]1C=C[C@H](NS(=O)(=O)c2cccc(F)c2)[C@@H](CO)O1,inconclusive: 29.9%
4,C[C@H](CO)N1C[C@H](C)[C@@H](CN(C)C)Oc2cc(Br)ccc2S1(=O)=O,inactive: 5.48%
5,CCCCC(CC)Cn1c(N)c(C#N)c2nc3ccccc3nc21 (configuration not stated),inconclusive: 39.1%
6,O=C(Nc1cccc(F)c1)N[C@H]1CC[C@@H](CCn2cc(Cc3ccccc3)nn2)O[C@@H]1CO,inconclusive: 26.5%
7,COc1cc(OC)cc(C(=O)Nc2ccc3c(c2)CCCN3C(=O)c2cccs2)c1,inconclusive: 24.3%
8,CCCSc1nc2sc3c(c2c(=O)[nH]1)CC(C)CC3 (configuration not stated),inconclusive: 22.4%
9,COc1ccc(OC)c(C2CC(=O)N3CN(c4cccc(Cl)c4)CSC3=C2C#N)c1 (configuration not stated),inactive: 3.34%
10,O=C(NCc1ccccc1)[C@H]1CCCN1C(=O)[C@@H]1CCCN1C(=O)c1ccc(Cl)cc1Cl,active: 40.8%
11,C=CCOC(=O)[C@@]12O[C@]3(COC[C@H](c4ccccc4)N3C1=O)[C@@H]1C(=O)N(c3ccccc3)C(=O)[C@@H]12,inactive: 4.17%
12,CCCN(C1CCS(=O)(=O)C1)S(=O)(=O)c1ccc(F)cc1 (configuration not stated),inconclusive: 34.4%
13,C[C@@H]1CN([C@H](C)CO)S(=O)(=O)c2ccc(C#Cc3ccncc3)cc2O[C@@H]1CN(C)C(=O)C1CC1,active: 30%
14,C[C@H](CO)N1C[C@H](C)[C@H](CN(C)Cc2ccc(C(F)(F)F)cc2)Oc2ccc(NC(=O)C3CCCCC3)cc2C1=O,inactive: -8.01%
15,c1cc(-c2ccc3c(c2)CCO3)n2cnnc2c1,inactive: 0.0075%
16,C[C@H]1CN([C@@H](C)CO)C(=O)c2cc(C#CC3CC3)cnc2O[C@@H]1CN(C)C(=O)c1ccccc1,inactive: 0.802%
17,CO[C@@H]1CN(C)C(=O)c2ccc(NC(=O)Nc3ccccc3Cl)cc2OC[C@@H](C)N(Cc2ccccc2C(=O)O)C[C@H]1C,inconclusive: 22%
18,C[C@H](CO)N1C[C@H](C)[C@@H](CN(C)C(=O)Nc2ccc(C(F)(F)F)cc2)Oc2c(NC(=O)c3ccncc3)cccc2C1=O,inconclusive: 52.3%
19,O=C(N/N=C/c1ccco1)C1CC(=O)N(c2ccccc2)C1 (configuration not stated),inconclusive: 37.5%
20,CCCCCCC#Cc1ccc2c(c1)COc1c3ccccc3nn1-2,inactive: -15.9%
21,COc1ccc2c3c([nH]c2c1)[C@@H](CO)NCC31CCN(Cc2ccc(F)cc2)CC1,active: 24.2%
22,Cc1cc(S(=O)(=O)NC2CCCCC2)ccc1OCC(=O)N1CCOCC1,inactive: 16.7%
23,C[C@@H]1CN([C@@H](C)CO)C(=O)c2cc(NS(=O)(=O)c3cn(C)cn3)ccc2O[C@@H](C)CCCCO[C@H]1CN(C)C(=O)Cc1ccccc1,inactive: -5.16%
24,O=C(CN1C(=O)NC(Cc2c[nH]c3ccccc23)C1=O)Nc1ccccc1Br (configuration not stated),inconclusive: 24.8%
